Reference: PMC11046865
Results are given in words; binding and its absence hold for the method and conditions named. Binding seen in cells or lysates may run through a third protein.

Sequences of proteins named here, by UniProt entry; tags and fusion partners are left off.
UniProt P35222: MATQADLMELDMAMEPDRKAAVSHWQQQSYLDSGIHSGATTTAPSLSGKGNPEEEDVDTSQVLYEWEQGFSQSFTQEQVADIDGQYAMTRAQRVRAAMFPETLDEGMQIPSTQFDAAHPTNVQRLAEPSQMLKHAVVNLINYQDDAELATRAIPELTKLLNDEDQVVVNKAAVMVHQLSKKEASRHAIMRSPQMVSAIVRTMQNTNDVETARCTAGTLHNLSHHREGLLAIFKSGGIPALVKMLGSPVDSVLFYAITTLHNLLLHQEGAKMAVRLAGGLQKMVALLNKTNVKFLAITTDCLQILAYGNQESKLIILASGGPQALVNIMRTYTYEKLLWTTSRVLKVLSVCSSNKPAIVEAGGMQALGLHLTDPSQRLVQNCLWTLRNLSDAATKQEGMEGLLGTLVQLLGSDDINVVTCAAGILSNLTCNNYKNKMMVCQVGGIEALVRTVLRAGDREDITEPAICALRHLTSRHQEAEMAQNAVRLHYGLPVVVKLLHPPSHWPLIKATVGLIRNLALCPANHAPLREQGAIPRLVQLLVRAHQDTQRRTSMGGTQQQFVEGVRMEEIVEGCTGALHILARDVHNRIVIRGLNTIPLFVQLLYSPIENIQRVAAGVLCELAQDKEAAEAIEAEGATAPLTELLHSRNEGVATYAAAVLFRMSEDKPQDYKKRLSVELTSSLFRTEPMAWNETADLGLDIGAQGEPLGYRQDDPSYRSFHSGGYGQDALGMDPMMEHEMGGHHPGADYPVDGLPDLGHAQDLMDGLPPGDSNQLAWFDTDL

Target: ß-catenin (endogenous, HCT116) (human (endogenous in HCT116)) (UniProt P35222)
Assay: co-IP; endogenous proteins in HCT116 cells; β-Cat and TCF7L2 IPs as positive controls; western blotting

Substance: PAX1 (endogenous, HCT116) (from UniProt P15863-1 1-534)
- binding: no binding
